PubChem BioAssay AID602196 | INSERM – 2012

Aim: 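Genes whose knock-down alters cisplatin killing of lung cancer cells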
System: human A549 lung cancer cells
Reagents: siRNA pair against human genes
Time to read-out: 48 h transfection before cisplatin; time from cisplatin to read-out not stated
Treatment: cisplatin at a dose killing half of control-siRNA cells; exact dose and duration not given
Read-out: 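Cisplatin cell death as a shift from the 50% death seen with control siRNA; siRNAs toxic or growth-blocking alone scored 0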
Scale: two-siRNA summed score (-2 to +2): higher = both siRNAs protect from cisplatin killing; -2 means both sensitise; mean protection from cisplatin (shift in death) and protection from cisplatin (shift in death), siRNA C and protection from cisplatin (shift in death), siRNA D: higher = protection from cisplatin killing
Rule for the call: 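siRNAs harmful alone (LDH or WST-1) get 0; others get +1 for less and -1 for more cisplatin killing; genes are active when the two siRNAs give the same sign, summing to ±2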
Meaning of the calls: active = both siRNAs shift cisplatin killing the same way; inactive = no consistent shift, or siRNA harmful alone
In all, the deposit lists about 23,000 reagents; below is a random part of them. Over the whole deposit, 455 (2%) were called active. 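Active includes both protection and sensitisation; some change values fall well beyond the stated -50 to +50 range.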 Not given: the amount of reagent.

gene symbol | two-siRNA summed score (-2 to +2) | mean protection from cisplatin (shift in death) (%) | protection from cisplatin (shift in death), siRNA C (%) | protection from cisplatin (shift in death), siRNA D (%) | Outcome
GJD2 | 0 | 7.3 | 11.9 | 2.7 | inactive
LOC389281 | 0 | 2.3 | 4.6 | -0.1 | inactive
LOC284527 | 0 | 9.8 | 8 | 11.5 | inactive
LOC442407 | 0 | 3.2 | -10 | 16.4 | inactive
LOC200491 | 1 | 14.4 | 8.9 | 20 | inactive
ZNF226 | 1 | 10 | 4.8 | 15.3 | inactive
SUSD4 | 0 | 1.6 | 4.1 | -1 | inactive
PROM1 | 0 | 4.2 | 5.8 | 2.5 | inactive
LOC341306 | 0 | 12.4 | 2.8 | 22.1 | inactive
TOM1 | 0 | -10.4 | -8 | -12.7 | inactive
ETNK1 | 1 | 15.1 | 28.2 | 2.1 | inactive
LINC03025 | 0 | 4.2 | 9.7 | -1.3 | inactive
KIR2DS5 | 0 | 13.3 | 16.1 | 10.5 | inactive
PRPF4 | 0 | 1.2 | 4.5 | -2 | inactive
LOC387648 | -1 | -6.4 | 7.4 | -20.3 | inactive
LOC389149 | 0 | 17.4 | 23.3 | 11.6 | inactive
DMRTB1 | 0 | 1.2 | 2.8 | -0.4 | inactive
OR4D9 | 0 | -6.7 | -6.9 | -6.5 | inactive
EOMES | 0 | 3 | -2.5 | 8.6 | inactive
MIR7-3HG | 1 | 6.8 | -2.1 | 15.7 | inactive
GNL1 | 0 | -0.1 | -3.3 | 3.2 | inactive
COBLP1 | 0 | 10.7 | 14.7 | 6.7 | inactive

2 neighbouring entries already listed:
gene symbol | two-siRNA summed score (-2 to +2) | mean protection from cisplatin (shift in death) (%) | protection from cisplatin (shift in death), siRNA C (%) | protection from cisplatin (shift in death), siRNA D (%) | Outcome
MIR7-3HG | 1 | 6.8 | -2.1 | 15.7 | inactive
GNL1 | 0 | -0.1 | -3.3 | 3.2 | inactive

Additional entries follow:
gene symbol | two-siRNA summed score (-2 to +2) | mean protection from cisplatin (shift in death) (%) | protection from cisplatin (shift in death), siRNA C (%) | protection from cisplatin (shift in death), siRNA D (%) | Outcome
LOC399921 | 0 | 4.5 | 10.8 | -1.8 | inactive
PDCL3 | 0 | 2.5 | -8.6 | 13.6 | inactive
LOC390508 | 0 | 2.9 | -7.2 | 12.9 | inactive
HNF1B | 0 | -5.5 | -6.9 | -4.2 | inactive
CYTL1 | 0 | -1.3 | 13.9 | -16.5 | inactive
TPST1 | 0 | 1.4 | 2.5 | 0.2 | inactive
ATXN3L | 1 | 6 | -0.3 | 12.2 | inactive
CSN2 | -1 | -2.8 | -15.9 | 10.2 | inactive
FLJ45651 | 0 | -1.5 | 4.7 | -7.6 | inactive
FYCO1 | 0 | 4 | -14.4 | 22.4 | inactive
LOC155100 | 0 | 3.5 | -3.7 | 10.7 | inactive
SF3B3 | 0 | 13.3 | 17.1 | 9.5 | inactive
LDB1 | 1 | 14 | 0.5 | 27.5 | inactive
BEST2 | 0 | 10.3 | 3.5 | 17 | inactive
ACOT11 | 0 | 14.3 | 10.9 | 17.7 | inactive
LOC285307 | 1 | 15.6 | 3.6 | 27.6 | inactive
LOC442571 | 0 | 4.6 | 8.8 | 0.3 | inactive
